{"source": "the supplement of paper PMC11348887", "note": "Counter-ions that a name gives are not always drawn. This is one part of the list. Most entries show no effect beyond the scatter of the controls."}
{"test_system": "hPSC-derived cortical neurons (WA09)", "assay": "nucleus roundness z-score vs screen plate; higher = rounder nuclei (more mature)", "conditions": "5 µM; treatment: days 7-14 after plating, readout day 21"}
{"smiles": "O=C(O)Cn1nnc(-c2cc(N3CCC(Oc4cc(F)ccc4Br)CC3)no2)n1", "nucleus roundness z-score": 0.48}
{"smiles": "OCC(CO)N[C@H]1C[C@](O)(CO)[C@@H](O)[C@H](O)[C@H]1O", "note": "[Voglibose]", "nucleus roundness z-score": -0.806}
{"smiles": "CN(C)CC(c1ccc(O)cc1)C1(O)CCCCC1", "note": "(stereo not given) [Desvenlafaxine Succinate]", "nucleus roundness z-score": -0.472}
{"smiles": "C[C@@H]1CCO[C@H]2Cn3cc(C(=O)NCc4ccc(F)cc4F)c(=O)c(O)c3C(=O)N12", "nucleus roundness z-score": 0.309}
{"smiles": "COc1cc2nccc(Oc3ccc(NC(=O)NC4CC4)c(Cl)c3)c2cc1C(N)=O", "note": "[Lenvatinib (E7080)]", "nucleus roundness z-score": 0.0686}
{"smiles": "CC(=O)OCC(CCn1cnc2cnc(N)nc21)COC(C)=O", "note": "[Famciclovir]", "nucleus roundness z-score": 0.654}
{"test_system": "hPSC-derived cortical neurons (WA09)", "assay": "KCl-induced FOS+/EGR-1+ double-positive nuclei fraction z-score (KCl minus unstimulated); higher = stronger activity-induced IEG response", "conditions": "5 µM; treatment: days 7-14 after plating, readout day 21"}
{"smiles": "CC1(C)[C@H](C(=O)O)N2C(=O)C[C@H]2S1(=O)=O", "note": "[Sulbactam sodium]", "KCl-induced FOS+/EGR-1+ double-positive nuclei fraction z-score": 0.271}
{"smiles": "Cc1cc2c(F)c(Oc3ncnn4cc(OC[C@@H](C)OC(=O)[C@H](C)N)c(C)c34)ccc2[nH]1", "KCl-induced FOS+/EGR-1+ double-positive nuclei fraction z-score": 0.147}
{"smiles": "CC(C)(C)C(=O)OCOP(=O)(COCCn1cnc2c(N)ncnc21)OCOC(=O)C(C)(C)C", "note": "[Adefovir Dipivoxil]", "KCl-induced FOS+/EGR-1+ double-positive nuclei fraction z-score": -1.01}
{"smiles": "COC(=O)CC[C@H](NC(=O)[C@H](CC(=O)OC)NC(=O)OCc1ccccc1)C(=O)N[C@H](C(=O)N[C@@H](CC(=O)OC)C(=O)CF)C(C)C", "KCl-induced FOS+/EGR-1+ double-positive nuclei fraction z-score": 1.1}
{"smiles": "CCCC1O[C@@H]2C[C@H]3[C@@H]4CCC5=CC(=O)C=C[C@]5(C)[C@H]4[C@@H](O)C[C@]3(C)[C@]2(C(=O)CO)O1", "note": "(stereo not given in full) [Budesonide]", "KCl-induced FOS+/EGR-1+ double-positive nuclei fraction z-score": 0.307}
{"smiles": "CCOC(=O)[C@H](CCc1ccccc1)N[C@H]1CS[C@H](c2cccs2)CN(CC(=O)O)C1=O", "note": "[Temocapril HCl]", "KCl-induced FOS+/EGR-1+ double-positive nuclei fraction z-score": 0.309}
{"smiles": "CN1CCC[C@@H]1CCO[C@](C)(c1ccccc1)c1ccc(Cl)cc1", "note": "[Clemastine Fumarate]", "KCl-induced FOS+/EGR-1+ double-positive nuclei fraction z-score": -0.455}
{"smiles": "CN(CCOc1ccc(CC2SC(=O)NC2=O)cc1)c1ccccn1", "note": "(stereo not given) [Rosiglitazone maleate]", "KCl-induced FOS+/EGR-1+ double-positive nuclei fraction z-score": 0.0472}
{"smiles": "Brc1ccc([C@H]2CN3CCSC3=N2)cc1", "note": "[(-)-p-Bromotetramisole Oxalate]", "KCl-induced FOS+/EGR-1+ double-positive nuclei fraction z-score": 0.472}
{"smiles": "O=c1[nH]cnc2c1ncn2[C@@H]1O[C@H](CO)[C@@H](O)[C@H]1O", "note": "[Inosine]", "KCl-induced FOS+/EGR-1+ double-positive nuclei fraction z-score": 0.846}
{"smiles": "C=CC(=O)Nc1cc(Nc2nccc(-c3c[nH]c4ccccc34)n2)c(OC)cc1N(C)CCN(C)C", "KCl-induced FOS+/EGR-1+ double-positive nuclei fraction z-score": -14.9}
{"smiles": "CN1C2CCCC1CC(NC(=O)c1nn(C)c3ccccc13)C2", "note": "(stereo not given) [Granisetron HCl]", "KCl-induced FOS+/EGR-1+ double-positive nuclei fraction z-score": -0.959}
{"smiles": "CCN(Cc1ccncc1)C(=O)C(CO)c1ccccc1", "note": "(stereo not given) [Tropicamide]", "KCl-induced FOS+/EGR-1+ double-positive nuclei fraction z-score": 0.43}
{"smiles": "COC(=O)N(C)c1c(N)nc(-c2nn(Cc3ccccc3F)c3ncccc23)nc1N", "note": "[Riociguat (BAY 63-2521)]", "KCl-induced FOS+/EGR-1+ double-positive nuclei fraction z-score": 1.17}
{"smiles": "COC(=O)Nc1ccc(-c2nc(N3CCOCC3)c3cnn(C4CCN(C(=O)OC)CC4)c3n2)cc1", "KCl-induced FOS+/EGR-1+ double-positive nuclei fraction z-score": -0.675}
{"smiles": "O=C(NC[C@H](O)CN1CCc2ccccc2C1)c1ccnc(NC2CCC2)c1", "KCl-induced FOS+/EGR-1+ double-positive nuclei fraction z-score": -0.0778}
{"smiles": "O=c1cc(N2CCOCC2)oc2c(-c3cccc4c3sc3ccccc34)cccc12", "KCl-induced FOS+/EGR-1+ double-positive nuclei fraction z-score": -0.976}
{"smiles": "CC[C@]1(O)C[C@H]2CN(CCc3c([nH]c4ccccc34)[C@@](C(=O)OC)(c3cc4c(cc3OC)N(C=O)[C@H]3[C@@](O)(C(=O)OC)[C@H](OC(C)=O)[C@]5(CC)C=CCN6CC[C@]43[C@@H]65)C2)C1", "note": "[Vincristine]", "KCl-induced FOS+/EGR-1+ double-positive nuclei fraction z-score": -0.729}
{"smiles": "CC(=O)N[C@@H](CS)C(=O)O", "note": "[Acetylcysteine]", "KCl-induced FOS+/EGR-1+ double-positive nuclei fraction z-score": 0.27}
{"smiles": "CN(C)CCCN1c2ccccc2Sc2ccc(Cl)cc21", "note": "[Chlorpromazine HCl]", "KCl-induced FOS+/EGR-1+ double-positive nuclei fraction z-score": -0.242}
{"smiles": "O=C1C2CC3CC1CC(O)(C3)C2", "note": "[Idramantone]", "KCl-induced FOS+/EGR-1+ double-positive nuclei fraction z-score": -0.295}
{"smiles": "CCOC(=O)c1ccc(OC(=O)CCCCCNC(=N)N)cc1", "note": "[Gabexate Mesylate]", "KCl-induced FOS+/EGR-1+ double-positive nuclei fraction z-score": -0.83}
{"smiles": "COC(=O)N[C@@H](C)CNc1nccc(-c2cn(C(C)C)nc2-c2cc(Cl)cc(NS(C)(=O)=O)c2F)n1", "KCl-induced FOS+/EGR-1+ double-positive nuclei fraction z-score": -0.592}
{"smiles": "COC(=O)c1ccc2c(c1)NC(=O)/C2=C(\\Nc1ccc(N(C)C(=O)CN2CCN(C)CC2)cc1)c1ccccc1", "note": "[Nintedanib (BIBF 1120)]", "KCl-induced FOS+/EGR-1+ double-positive nuclei fraction z-score": 0.00106}
{"smiles": "COc1cc2nc(N3CCN(C(=O)c4ccco4)CC3)nc(N)c2cc1OC", "note": "[Prazosin HCl]", "KCl-induced FOS+/EGR-1+ double-positive nuclei fraction z-score": 0.455}
{"smiles": "O=C(O)c1ccc(CN2CCC(CN[C@@H]3C[C@H]3c3ccccc3)CC2)cc1", "KCl-induced FOS+/EGR-1+ double-positive nuclei fraction z-score": 3.41}
{"smiles": "C[C@]12CC[C@@H]3c4ccc(O)cc4CC[C@H]3[C@@H]1CCC2=O", "note": "[Estrone]", "KCl-induced FOS+/EGR-1+ double-positive nuclei fraction z-score": 0.954}
{"smiles": "CO[C@H]1C[C@@H]2CC[C@@H](C)[C@@](O)(O2)C(=O)C(=O)N2CCCC[C@H]2C(=O)O[C@H]([C@H](C)C[C@@H]2CC[C@@H](OC(=O)C(C)(CO)CO)[C@H](OC)C2)CC(=O)[C@H](C)/C=C(\\C)[C@@H](O)[C@@H](OC)C(=O)[C@H](C)C[C@H](C)/C=C/C=C/C=C/1C", "KCl-induced FOS+/EGR-1+ double-positive nuclei fraction z-score": 0.819}
{"smiles": "O=c1c(O)c(-c2ccc(O)cc2O)oc2cc(O)cc(O)c12", "note": "[Morin Hydrate]", "KCl-induced FOS+/EGR-1+ double-positive nuclei fraction z-score": 1.12}
{"smiles": "N=C1NC(=O)/C(=C/c2ccc(O)cc2)S1", "note": "[Mirin]", "KCl-induced FOS+/EGR-1+ double-positive nuclei fraction z-score": 0.907}
{"smiles": "COc1ccc(-c2ccc3c(N4CCOCC4)nc(N4C[C@@H](C)O[C@@H](C)C4)nc3n2)cc1CO", "KCl-induced FOS+/EGR-1+ double-positive nuclei fraction z-score": -0.274}
{"smiles": "COc1cc2ncnc(Nc3ccc(F)c(Cl)c3)c2cc1NC(=O)/C=C/CN1CCCCC1", "KCl-induced FOS+/EGR-1+ double-positive nuclei fraction z-score": -0.801}
{"smiles": "C=CC(=O)Nc1ccc2ncnc(Nc3cccc(Br)c3)c2c1", "KCl-induced FOS+/EGR-1+ double-positive nuclei fraction z-score": -0.0454}
{"smiles": "O=C(O)Cn1nnc(-c2cc(N3CCC(Oc4cc(F)ccc4Br)CC3)no2)n1", "KCl-induced FOS+/EGR-1+ double-positive nuclei fraction z-score": 0.141}
{"smiles": "OCC(CO)N[C@H]1C[C@](O)(CO)[C@@H](O)[C@H](O)[C@H]1O", "note": "[Voglibose]", "KCl-induced FOS+/EGR-1+ double-positive nuclei fraction z-score": 0.135}
{"smiles": "CN(C)CC(c1ccc(O)cc1)C1(O)CCCCC1", "note": "(stereo not given) [Desvenlafaxine Succinate]", "KCl-induced FOS+/EGR-1+ double-positive nuclei fraction z-score": -0.0728}
{"smiles": "C[C@@H]1CCO[C@H]2Cn3cc(C(=O)NCc4ccc(F)cc4F)c(=O)c(O)c3C(=O)N12", "KCl-induced FOS+/EGR-1+ double-positive nuclei fraction z-score": 0.547}
{"smiles": "COc1cc2nccc(Oc3ccc(NC(=O)NC4CC4)c(Cl)c3)c2cc1C(N)=O", "note": "[Lenvatinib (E7080)]", "KCl-induced FOS+/EGR-1+ double-positive nuclei fraction z-score": -0.145}
{"smiles": "CC(=O)OCC(CCn1cnc2cnc(N)nc21)COC(C)=O", "note": "[Famciclovir]", "KCl-induced FOS+/EGR-1+ double-positive nuclei fraction z-score": 2.38}
